Data taken from ChEMBL document CHEMBL3988442, “University of Dundee, Small-Polar-MMV Screening Library” (2021).

Sequences of proteins named here, by UniProt entry; tags and fusion partners are left off. Residues count along the entry.
UniProt P9WFT3, whole entry: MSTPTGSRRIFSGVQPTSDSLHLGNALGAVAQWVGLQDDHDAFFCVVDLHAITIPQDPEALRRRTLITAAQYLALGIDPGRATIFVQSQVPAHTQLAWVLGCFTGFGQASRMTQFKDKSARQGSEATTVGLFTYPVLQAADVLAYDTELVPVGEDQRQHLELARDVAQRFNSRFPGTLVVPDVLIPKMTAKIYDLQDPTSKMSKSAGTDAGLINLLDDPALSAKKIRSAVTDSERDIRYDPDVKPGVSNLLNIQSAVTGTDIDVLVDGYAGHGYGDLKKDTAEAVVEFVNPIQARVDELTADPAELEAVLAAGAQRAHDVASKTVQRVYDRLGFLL
UniProt Q4DA54, 1-478: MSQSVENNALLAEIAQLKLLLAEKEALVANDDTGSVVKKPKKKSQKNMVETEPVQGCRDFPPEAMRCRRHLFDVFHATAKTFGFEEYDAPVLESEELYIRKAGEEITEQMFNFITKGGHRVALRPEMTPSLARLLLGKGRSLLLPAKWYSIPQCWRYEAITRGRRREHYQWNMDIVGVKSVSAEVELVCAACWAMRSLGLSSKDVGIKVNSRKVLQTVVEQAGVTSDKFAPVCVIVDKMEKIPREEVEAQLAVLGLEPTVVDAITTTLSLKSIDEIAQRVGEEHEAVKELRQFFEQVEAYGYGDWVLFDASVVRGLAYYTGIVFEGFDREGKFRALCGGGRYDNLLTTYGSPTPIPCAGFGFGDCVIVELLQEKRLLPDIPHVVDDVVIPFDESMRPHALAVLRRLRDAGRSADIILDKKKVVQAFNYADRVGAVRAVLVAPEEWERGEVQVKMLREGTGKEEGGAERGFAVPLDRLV
UniProt Q8IDJ8, 1-583: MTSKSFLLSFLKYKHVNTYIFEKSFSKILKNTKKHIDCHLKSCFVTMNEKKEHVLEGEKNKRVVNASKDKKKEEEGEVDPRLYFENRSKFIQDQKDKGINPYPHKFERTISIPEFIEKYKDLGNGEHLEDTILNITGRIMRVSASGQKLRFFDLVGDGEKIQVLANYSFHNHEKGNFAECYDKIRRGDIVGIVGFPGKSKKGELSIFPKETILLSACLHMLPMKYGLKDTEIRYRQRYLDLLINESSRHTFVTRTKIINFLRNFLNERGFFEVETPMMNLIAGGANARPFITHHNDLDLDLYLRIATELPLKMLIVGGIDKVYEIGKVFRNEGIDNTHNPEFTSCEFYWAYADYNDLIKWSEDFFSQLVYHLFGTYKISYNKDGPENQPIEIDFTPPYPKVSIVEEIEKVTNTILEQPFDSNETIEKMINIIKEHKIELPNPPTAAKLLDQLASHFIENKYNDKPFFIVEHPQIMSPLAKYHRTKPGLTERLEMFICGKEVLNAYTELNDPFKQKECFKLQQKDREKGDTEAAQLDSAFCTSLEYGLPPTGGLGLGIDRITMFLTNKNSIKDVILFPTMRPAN
UniProt P9WNZ1, whole entry: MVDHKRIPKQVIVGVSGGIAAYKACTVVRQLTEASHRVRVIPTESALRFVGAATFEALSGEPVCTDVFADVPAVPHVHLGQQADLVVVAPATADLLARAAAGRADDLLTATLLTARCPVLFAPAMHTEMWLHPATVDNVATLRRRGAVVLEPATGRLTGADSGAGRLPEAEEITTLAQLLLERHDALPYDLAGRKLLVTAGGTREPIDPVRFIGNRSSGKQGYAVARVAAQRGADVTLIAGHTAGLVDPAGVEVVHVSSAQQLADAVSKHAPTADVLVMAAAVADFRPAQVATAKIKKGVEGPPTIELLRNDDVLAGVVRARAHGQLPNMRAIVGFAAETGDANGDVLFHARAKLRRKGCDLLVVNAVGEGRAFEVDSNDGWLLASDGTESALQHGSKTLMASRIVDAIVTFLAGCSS
UniProt I6X8D2, whole entry: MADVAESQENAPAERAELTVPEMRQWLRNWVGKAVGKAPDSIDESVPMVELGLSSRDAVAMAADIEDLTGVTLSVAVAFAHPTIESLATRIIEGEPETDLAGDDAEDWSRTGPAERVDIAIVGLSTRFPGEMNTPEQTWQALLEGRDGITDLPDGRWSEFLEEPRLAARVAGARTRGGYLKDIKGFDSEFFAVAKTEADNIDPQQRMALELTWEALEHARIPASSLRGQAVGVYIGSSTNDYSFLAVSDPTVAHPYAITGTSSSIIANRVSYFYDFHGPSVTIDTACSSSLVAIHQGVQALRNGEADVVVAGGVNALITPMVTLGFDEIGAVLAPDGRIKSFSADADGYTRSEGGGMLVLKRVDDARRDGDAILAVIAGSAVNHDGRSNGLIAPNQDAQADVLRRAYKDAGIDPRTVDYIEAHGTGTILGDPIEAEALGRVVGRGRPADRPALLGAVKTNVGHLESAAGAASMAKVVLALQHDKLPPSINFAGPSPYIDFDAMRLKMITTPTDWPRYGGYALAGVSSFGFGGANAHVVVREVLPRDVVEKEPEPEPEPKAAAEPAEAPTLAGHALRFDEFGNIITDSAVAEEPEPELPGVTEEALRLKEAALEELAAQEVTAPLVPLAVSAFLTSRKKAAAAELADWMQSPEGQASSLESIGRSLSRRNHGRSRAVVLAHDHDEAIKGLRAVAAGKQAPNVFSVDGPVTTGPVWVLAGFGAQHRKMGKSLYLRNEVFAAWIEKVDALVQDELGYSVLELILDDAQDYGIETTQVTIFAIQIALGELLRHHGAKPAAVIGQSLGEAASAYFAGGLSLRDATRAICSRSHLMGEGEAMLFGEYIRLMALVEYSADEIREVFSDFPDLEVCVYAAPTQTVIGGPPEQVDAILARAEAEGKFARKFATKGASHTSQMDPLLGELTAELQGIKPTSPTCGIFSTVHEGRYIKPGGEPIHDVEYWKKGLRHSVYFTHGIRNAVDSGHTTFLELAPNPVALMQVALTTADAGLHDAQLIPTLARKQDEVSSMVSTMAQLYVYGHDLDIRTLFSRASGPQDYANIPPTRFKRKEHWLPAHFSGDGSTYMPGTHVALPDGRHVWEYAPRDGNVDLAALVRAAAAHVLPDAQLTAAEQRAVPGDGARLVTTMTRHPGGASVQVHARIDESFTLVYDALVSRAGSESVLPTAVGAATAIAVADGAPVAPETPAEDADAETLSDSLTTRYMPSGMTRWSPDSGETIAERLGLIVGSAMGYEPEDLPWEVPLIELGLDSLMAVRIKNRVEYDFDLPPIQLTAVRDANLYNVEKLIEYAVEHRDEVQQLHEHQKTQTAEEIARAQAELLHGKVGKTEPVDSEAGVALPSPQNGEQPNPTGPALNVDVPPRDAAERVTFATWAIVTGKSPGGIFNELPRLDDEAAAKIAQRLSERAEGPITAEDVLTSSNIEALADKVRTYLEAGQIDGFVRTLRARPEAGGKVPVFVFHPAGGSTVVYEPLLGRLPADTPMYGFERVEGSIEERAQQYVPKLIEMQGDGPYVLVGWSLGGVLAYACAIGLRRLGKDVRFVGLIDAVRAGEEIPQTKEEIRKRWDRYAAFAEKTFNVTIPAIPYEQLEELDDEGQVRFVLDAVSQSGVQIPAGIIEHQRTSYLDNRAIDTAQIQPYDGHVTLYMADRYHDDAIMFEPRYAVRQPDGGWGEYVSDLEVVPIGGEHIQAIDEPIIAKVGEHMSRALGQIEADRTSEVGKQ

MtTrpRS: 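Enzyme assay of tryptophanyl-tRNA synthetase; the read-out is not stated. Target: Tryptophan-tRNA ligase, Mycobacterium tuberculosis (UniProt P9WFT3). Concentration: 10 µM. Direction is not recorded; retested compounds ran higher, which suggests that high means inhibition. About 65,000 compounds were tested under these conditions; 0.098% (about 64) showed 50% or more at least once.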
TcHisRS: 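Histidine-tRNA ligase, Trypanosoma cruzi CL Brener (UniProt Q4DA54). Enzyme assay of histidyl-tRNA synthetase; the read-out is not stated. Compounds at 30 µM. Direction is inferred from retests: higher values go with stronger inhibition. Size under these conditions: about 69,000 compounds, about 31 of them at 50% or above in at least one test.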
PfKRS1: 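Enzyme assay of the cytosolic lysyl-tRNA synthetase in 384-well plates, read by luminescence. Target: Lysine-tRNA ligase, Plasmodium falciparum 3D7 (UniProt Q8IDJ8). Concentration: 30 µM. Higher reads as stronger inhibition, judged from the few compounds that gave an IC50. About 69,000 compounds were tested under these conditions; 0.071% (about 49) showed 50% or more at least once.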
CoaBC: 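Enzyme assay of CoaBC with a phosphate dye (Biomol Green) read at 650 nm. Target: Coenzyme A biosynthesis protein CoaBC, Mycobacterium tuberculosis (UniProt P9WNZ1). Tested at 30 µM. Higher reads as stronger inhibition, judged from the few compounds that gave an IC50. Most strong results did not repeat in a second test. About 67,000 compounds were tested under these conditions; 0.06% (about 40) showed 50% or more at least once.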
Pks13 thioesterase: 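Polyketide synthase Pks13, Mycobacterium tuberculosis (UniProt I6X8D2). Enzyme assay of the thioesterase domain of polyketide synthase 13; the read-out is not stated. Compounds at 30 µM. Higher reads as stronger inhibition (inferred from which compounds were picked for retests). Of about 67,000 compounds tested this way, about 300 (0.46%) reached 50% or more in at least one test.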
Leishmania in macrophages: 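Cell assay of Leishmania donovani living inside macrophages; the read-out is not stated. Concentration: 30 µM. Direction is inferred from retests: higher values go with stronger inhibition. Size under these conditions: about 69,000 compounds, about 1,000 of them at 50% or above in at least one test.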

Values are the deposited “Percent Effect”, in %. How 0% and 100% were set is not recorded. Most values in the screen are low, and negative values occur. The compounds are a random part of those screened. Two or more numbers in one place are separate tests of the same structure; such repeats can differ widely.

{"smiles": "O=S(=O)(CCNCc1ccc(Cl)cc1)N1CCOCC1", "MtTrpRS": -1.018, "TcHisRS": 10.31, "PfKRS1": 1.634, "CoaBC": 0.2445, "Pks13 thioesterase": -14.18, "Leishmania in macrophages": 30.45}
{"smiles": "CN(C)CCn1ccc2cc(NC(=O)NCc3ncnn3C)ccc21", "MtTrpRS": -3.964, "TcHisRS": -3.59, "PfKRS1": -0.4318, "CoaBC": 4.72, "Pks13 thioesterase": -4.71, "Leishmania in macrophages": 2.658}
{"smiles": "O=C(O)C(F)(F)F.[H][C@@]12C[C@@H](C(=O)N3CCC(C)CC3)CN(Cc3ccoc3)[C@]1([H])CCO2", "Leishmania in macrophages": 26.33}
{"smiles": "NC(=O)c1ccc(CN2CCCC(N3CCCCCC3)C2)cc1", "stereo": "centres unmarked", "MtTrpRS": 1.097, "TcHisRS": 6.726, "PfKRS1": 3.471, "CoaBC": 5.33, "Pks13 thioesterase": -1.963, "Leishmania in macrophages": 17.55}
{"smiles": "CCN1CCc2[nH]cnc2C12CCN(C(=O)CCCn1cncn1)CC2", "MtTrpRS": 3.25, "TcHisRS": 6.024, "PfKRS1": 3.563, "CoaBC": 7.178, "Pks13 thioesterase": 1.408, "Leishmania in macrophages": -5.653}
{"smiles": "CC(C)c1nnc(NC(=O)N2CCN(C)CC2c2ccccc2)s1", "stereo": "centres unmarked", "MtTrpRS": 8.05, "TcHisRS": -1.316, "PfKRS1": -2.261, "Pks13 thioesterase": -19.63, "Leishmania in macrophages": 17.41}
{"smiles": "O=C(Nc1ccccc1F)N1CCN(Cc2noc(C3CC3)n2)CC1", "MtTrpRS": 0.2924, "TcHisRS": -1.128, "PfKRS1": 7.96, "CoaBC": 0.5222, "Pks13 thioesterase": -9.442, "Leishmania in macrophages": -9.105}
{"smiles": "[H][C@@]12C[C@@H](Oc3cncnc3)CN1CCN(C(=O)c1ccc(C)nc1)C2", "Leishmania in macrophages": 8.997}
{"smiles": "Cn1nccc1-c1nnn2c1COCC(CNCC1CC1)C2.O=C(O)C(F)(F)F.O=C(O)C(F)(F)F", "stereo": "centres unmarked", "Leishmania in macrophages": 12}
{"smiles": "CCOc1ccccc1NC(=O)NCC(C)(O)CCSC", "stereo": "centres unmarked", "MtTrpRS": 3.116, "TcHisRS": 2.062, "PfKRS1": 7.843, "CoaBC": -4.863, "Leishmania in macrophages": "9.239 & 22.82"}
{"smiles": "CN(C)C(=O)N1CCC2(CC1)CNc1ccc(F)cc12", "MtTrpRS": -2.327, "TcHisRS": 3.743, "PfKRS1": 0.7344, "CoaBC": -17.92, "Pks13 thioesterase": -33.04}
{"smiles": "COc1cccc(CN2CCN(c3cccc(C(C)C)n3)CC2)c1F", "MtTrpRS": 3.276, "TcHisRS": 7.182, "PfKRS1": -1.176, "CoaBC": 4.119, "Pks13 thioesterase": -15.07, "Leishmania in macrophages": -4.639}
{"smiles": "COc1c(CNCC(O)c2ccccc2)c(C(C)C)nn1C", "stereo": "centres unmarked", "MtTrpRS": -3.26, "TcHisRS": 6.706, "PfKRS1": 1.436, "CoaBC": 3.655, "Pks13 thioesterase": -12.61, "Leishmania in macrophages": 49.29}
{"smiles": "COc1ccnc(CN2CC(=O)N(c3ccc(C)cc3)CC2C)c1OC", "stereo": "centres unmarked", "MtTrpRS": 6.667, "TcHisRS": 16.67, "PfKRS1": 1.465, "CoaBC": 5.392, "Pks13 thioesterase": -34.61, "Leishmania in macrophages": 2.275}
{"smiles": "O=C(Cn1cccn1)N1CCC(c2nnc(-c3ccsc3)o2)CC1", "MtTrpRS": -0.1958, "TcHisRS": 2.825, "PfKRS1": 0.2584, "CoaBC": -8.959, "Pks13 thioesterase": -5.798, "Leishmania in macrophages": -4.995}
{"smiles": "CC(C)n1c2ccccc2c2c1cc(C(=O)NC1CC1)n2C(=O)N(C)C", "TcHisRS": 8.466, "PfKRS1": 0.9319, "CoaBC": 1.481, "Pks13 thioesterase": 12.74, "Leishmania in macrophages": 33.06}
{"smiles": "Cc1cccc(-c2noc(C)c2C(=O)NC2CCCOC2)c1.O=C(O)CC(O)(CC(=O)O)C(=O)O", "stereo": "centres unmarked", "Leishmania in macrophages": 4.105}
{"smiles": "Cc1cc(C)n(CCC(=O)OCC(=O)N2CCc3sccc3C2)n1", "MtTrpRS": -2.593, "TcHisRS": 4.762, "PfKRS1": 1.891, "CoaBC": -0.2451, "Leishmania in macrophages": -0.9278}

The last 2 entries again:

With Cc1cccc(-c2noc(C)c2C(=O)NC2CCCOC2)c1.O=C(O)CC(O)(CC(=O)O)C(=O)O (centres unmarked) the screen gave Leishmania in macrophages: 4.105%.
With Cc1cc(C)n(CCC(=O)OCC(=O)N2CCc3sccc3C2)n1 the screen gave MtTrpRS: -2.593%; TcHisRS: 4.762%; PfKRS1: 1.891%; CoaBC: -0.2451%; Leishmania in macrophages: -0.9278%.